This passage reports binding results from paper PMC12541429.

These are yes or no findings as the source states them, for the method shown. In cells and extracts the contact can be indirect. A result given as binding can be weak or reduced; the word gives no strength. Where a sequence is shown, tags or fusion partners need not be part of it.

This test concerns the target T1, GST-EFCAB10 (mouse) (UniProt Q9D581).
T1 sequence: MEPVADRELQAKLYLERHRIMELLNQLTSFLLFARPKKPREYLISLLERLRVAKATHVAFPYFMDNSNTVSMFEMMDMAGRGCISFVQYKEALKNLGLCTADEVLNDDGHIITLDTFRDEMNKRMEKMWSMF
Put plainly: pull-down; GST or GST-EFCAB10 bound to glutathione agarose beads, incubated with the supernatant of E. coli expressing HisMBP-tagged AK8 fragment, 4 h at 4 °C; low-salt lysis buffer (20 mM Tris-HCl, 100 mM KCl, 0.1% NP-40, 1 mM EDTA, 10% glycerol, 10 mM sodium pyrophosphate, pH 7.5); only the target purified.

Consider “His-MBP-AK8 N-terminus fragment (mouse) (domain or fragment)”, for which the binding entry was “binds”.
